Measurements from PubChem BioAssay AID2685 (National Center for Advancing Translational Sciences (NCATS), 2010).
The other results are listed elsewhere or left out. Shown are side measurements of this screen, not its main read-out; they come without a call. Most of these compounds were active or inconclusive in the main read-out, so they are no random draw. Potencies come from curve fits of mixed quality, noted in brackets.

Test: qHTS Assay for Lipid Storage Modulators in Drosophila S3 Cells;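 as to cell number change: cells counted by Cell Tracker Red CMTPX staining in the red channel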
Details: BODIPY lipid droplet fluorescence, 18-24 h; for cell number change: measured here: cell count max response, cells fed with added oleic acid
In short: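 Laser-scanning cytometry quantifies lipid droplet accumulation (500–530 nm total intensity; droplet/cell object ratio) in oleic acid-fed (400 uM added) Drosophila S3 cells treated with a concentration series. 20 uM Triacsin C defined 100% inhibition.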

[1] = measured here: lipid fluorescence (Fed channel) AC50, cells fed with added oleic acid
[2] = measured here: cell number channel AC50, cells fed with added oleic acid

Row | SMILES | AC50 [1] | cell number change | AC50 [2]
1 | Cc1cc(C(=O)Nc2cc(C(F)(F)F)ccc2N2CCOCC2)no1 | 0.58 µM [rising, single point] |  | 
2 | O=C(O)c1ccc2c3n(nc2c1)-c1ccc(Cl)cc1CO3 |  | 19.8% | 
3 | O=C(Nc1ccc(Cl)cc1)[C@@H]1[C@@H]2C(=O)N(c3ccc4ccccc4c3)C(=O)[C@@H]2[C@H]2C=CC=NN21 | 6.51 µM [falling, single point] | 50.3% | 29.1 µM [rising, single point]
4 | C=CCn1c(SCC(=O)c2c(N)n(C3CC3)c(=O)[nH]c2=O)nnc1-c1ccccc1OC |  | -37.4% | 2.06 µM [falling, single point]
5 | CCNc1ccc(S(=O)(=O)N(C)C)cc1NCC(=O)Nc1ccccc1F | 6.51 µM [rising, single point] | 34.9% | 9.2 µM [rising, partial curve]
6 | Cc1nc2c3cc(Cl)ccc3n(CCN3CCOCC3)c2s1 | 1.46 µM [rising, full curve, poor fit] | -25% | 
7 | NC(=O)c1ccc(NC(=O)CCc2nc3sc4c(c3c(=O)[nH]2)CCCC4)cc1 | 29.1 µM [falling, single point] | 15.6% | 
8 | CC(C(=O)Nc1ncc([N+](=O)[O-])s1)N1C(=O)c2ccccc2S1(=O)=O (stereo not drawn) | 23.1 µM [falling, partial curve] | -8.82% | 
9 | Cc1ccc(C2CC(C(F)(F)F)n3nc(C(=O)Nc4c(C)n(C)n(-c5ccccc5)c4=O)cc3N2)cc1 (stereo not drawn) |  | 36.4% | 4.61 µM [rising, full curve]
10 | CCOC(=O)N1CCN(C(=O)COC(=O)C2CCN(S(=O)(=O)c3c(Cl)cccc3Cl)CC2)CC1 | 29.1 µM [falling, single point] | -25.2% | 0.651 µM [falling, full curve, poor fit]
11 | CCCN1CCN(CCCNC(=O)C(CC)n2nc(C)c3sc4ccccc4c3c2=O)CC1 (stereo not drawn) | 29.1 µM [rising, single point] | -0.885% | 
12 | CCOC(=O)C1(Cc2cccc(F)c2)CCN(CCCn2cccn2)CC1 |  | 12.7% | 
13 | O=C(O)c1ccc2c(c1)C(=O)N([C@@H](Cc1ccc(O)cc1)C(=O)O)C2=O | 25.9 µM [falling, single point] | 2.14% | 
14 | Cc1nn(-c2ccccn2)c2c1C(c1ccncc1)C1=C(CC(C)(C)CC1=O)N2 (stereo not drawn) | 2.31 µM [rising, partial curve] |  | 1.16 µM [rising, partial curve]
15 | Cc1cc2ncc(-c3ncc(C(F)(F)F)cc3Cl)cn2n1 |  | 31% | 6.51 µM [rising, partial curve, poor fit]
16 | COC(=O)c1ccc2c(=O)n(CCN3CCOCC3)c(SCC(=O)c3ccccc3)nc2c1 | 16.4 µM [rising, single point] | 11.8% | 
17 | COc1ccc2c3n([n+]([O-])c2c1)CCN=C3c1cc(Cl)c(N)c(Cl)c1 | 0.00651 µM [rising, full curve, poor fit] | 19.5% | 
18 | CCc1nn(CC(=O)NCCc2ccc(Cl)cc2)c(=O)c2cccn12 | 6.51 µM [rising, partial curve] | -2.36% | 
19 | CCN1C(=O)[C@H]2[C@@H](c3ccc(-c4ccc(Cl)c(Cl)c4)cc3)N[C@@](CC(C)C)(C(=O)OC)[C@H]2C1=O | 0.0731 µM [falling, partial curve, poor fit] | 1.45% | 

Row | SMILES | AC50 [1] | cell number change | AC50 [2]
20 | COc1ccccc1NS(=O)(=O)c1ccc2oc(SC)nc2c1 | 6.51 µM [rising, partial curve] | -1.28% | 
21 | CCn1c2c(c(=N)c3ccccc31)CCC2 |  | -7.37% | 
22 | Cc1cnc(NC(=O)CCCNC(=O)c2ccc(Cl)cc2)s1 | 0.0259 µM [falling, full curve] | -17.9% | 
23 | COc1cc(-c2cn[nH]c2N)cc(OC)c1OC | 0.731 µM [falling, single point] | 29.5% | 3.66 µM [rising, full curve, poor fit]
24 | CCNNC(=O)C(O)(c1cccc(C)c1)c1cccc(C)c1 | 0.461 µM [rising, full curve, poor fit] | 10.1% | 
25 | CCn1cc(C(=O)O)c(=O)c2cnc(N3CCN(C(=S)NC(=O)c4ccc(Cl)cc4Cl)CC3)nc21 | 6.51 µM [rising, single point] | -5.71% | 
26 | CN1CCN(NC(=O)c2ccc(F)cc2)CC1 | 0.291 µM [falling, full curve, poor fit] |  | 
27 | Cc1ccc(CSCCNC(=O)CN2C(=O)c3ccccc3S2(=O)=O)cc1 |  | -4.19% | 
28 | O=C(O)C/C(=C\c1cc(Br)cs1)c1nc2ccccc2o1 |  | 22.9% | 
29 | Cc1nn(-c2ccc(Cl)cc2)c(N)c1C(O)(CSc1nccn1C)C(F)(F)F (stereo not drawn) | 5.17 µM [rising, single point] | 71.4% | 1.64 µM [rising, full curve]
30 | COc1ccc(-n2c(SCC(=O)Nc3ccccc3)nnc2-c2ccc(NS(=O)(=O)c3ccc(C)cc3)cc2)cc1 |  |  | 1.03 µM [rising, full curve, poor fit]
31 | COCCCNC(=S)N1CCN(c2nc(C)nc3sc4c(c23)CCCC4)CC1 |  | -0.702% | 
32 | CCOc1ccc(S(=O)(=O)Nc2ccc(C(=O)NCCCN3CCOCC3)cc2)cc1 |  | -5.5% | 
33 | O=C(O)c1cccc(NC(=O)c2cccc(NC(=O)C3CCCO3)c2)c1 (stereo not drawn) | 25.9 µM [falling, single point] | -43.3% | 25.9 µM [falling, single point]
34 | O=C(Nn1nnnc1Nc1ccccc1)C12CC3CC(CC(C3)C1)C2 | 29.1 µM [falling, single point] | -54% | 29.1 µM [falling, single point]
35 | Cc1cc(C)c2c(CN3CCN(Cc4ccccc4)CC3)cc(=O)oc2c1C | 16.4 µM [rising, partial curve, poor fit] | 29.8% | 
36 | COCCN(C(=O)COC(=O)c1c(NC(C)=O)sc(C)c1C)c1c(N)n(Cc2ccccc2)c(=O)[nH]c1=O | 18.4 µM [falling, single point] | 8.16% | 
37 | CC(=O)c1c(C)nc(C)nc1NC(=O)C(C)C | 0.116 µM [falling, full curve, poor fit] | -24.1% | 
38 | O=S1(=O)c2ccccc2N=NN1Cc1ccc(Cl)cc1 | 0.58 µM [falling, single point] | 8.91% | 

An excerpt from above in order of length of the SMILES, largest number first.
Row | SMILES | AC50 [1] | cell number change | AC50 [2]
33 | O=C(O)c1cccc(NC(=O)c2cccc(NC(=O)C3CCCO3)c2)c1 (stereo not drawn) | 25.9 µM [falling, single point] | -43.3% | 25.9 µM [falling, single point]
24 | CCNNC(=O)C(O)(c1cccc(C)c1)c1cccc(C)c1 | 0.461 µM [rising, full curve, poor fit] | 10.1% | 
38 | O=S1(=O)c2ccccc2N=NN1Cc1ccc(Cl)cc1 | 0.58 µM [falling, single point] | 8.91% | 
37 | CC(=O)c1c(C)nc(C)nc1NC(=O)C(C)C | 0.116 µM [falling, full curve, poor fit] | -24.1% | 

(next part)

Row | SMILES | AC50 [1] | cell number change | AC50 [2]
39 | O=C(CCc1nnc(CCCCc2ccccc2)o1)NCc1cccc(F)c1 | 7.31 µM [falling, partial curve] | -14.8% | 
40 | CCC(=O)Nc1ccc(C(=O)COC(=O)c2nc3nccc(C)n3n2)cc1 |  | 1.2% | 
41 | Cc1nc(Nc2ccc3c(c2)OCCO3)c2nnn(Cc3ccccc3Cl)c2n1 | 0.651 µM [rising, full curve] | 66.9% | 1.46 µM [rising, full curve]
42 | Cc1ccc(C)c2[nH]c(=O)c(C(c3nnnn3C3CCCC3)N3CCOCC3)cc12 (stereo not drawn) | 4.11 µM [rising, full curve, poor fit] | 32.2% | 0.0651 µM [rising, full curve]
43 | COc1ccc(NC(=O)CSc2cn[nH]n2)cc1OC |  | -12.7% | 
44 | COc1ccc(NC(=O)CSc2nc(O)cc(=O)n2-c2ccccc2OC)cc1 | 8.2 µM [falling, full curve] | -61.3% | 20.6 µM [falling, single point]
45 | CC(NC(=O)COc1ccc([N+](=O)[O-])cc1)c1ccccc1 (stereo not drawn) |  | 21.5% | 
46 | Cc1cc(C)cc(NC(=O)COc2ccc(C(=S)N3CCOCC3)cc2)c1 | 23.1 µM [rising, single point] | 36.7% | 
47 | Cc1ccc(CC(=O)NNC(=O)c2cccs2)cc1C |  | -99.5% | 29.1 µM [falling, single point]
48 | Oc1ccc(/C=N/Nc2nc(-c3cccnc3)nc3ccccc23)c(O)c1 | 20.6 µM [falling, partial curve, poor fit] | -57% | 20.6 µM [falling, partial curve]
49 | COc1ccc(OC)c(-n2c(SCC(N)=O)nnc2-c2c[nH]c3ccccc23)c1 | 11.6 µM [rising, partial curve] | 38.9% | 11.6 µM [rising, partial curve]
50 | CCN(CC(=O)Nc1ccccc1C(F)(F)F)C(=O)c1ccccc1Sc1ccccc1C#N | 16.4 µM [falling, single point] | 17% | 
51 | Cc1ccc(NC(=O)C2C3C=CC4(O3)C2C(=O)N(CCCN2CCCCC2)C4C(=O)NC2CCCCC2)cc1Cl (stereo not drawn) |  | 9.68% | 
52 | CC(C)c1ccc(CN2CCC(Oc3ccc(C(=O)N4CCCC4)cc3)CC2)cc1 | 3.55 µM [rising, full curve, poor fit] | 35.3% | 1.41 µM [rising, full curve, poor fit]
53 | CCOC(=O)c1ccc(NC(=O)CSc2nc3cccnc3n2C)cc1 | 16.4 µM [falling, partial curve] | -54.6% | 13 µM [falling, partial curve]
54 | CCc1ccc(S(=O)(=O)Nc2c(C)nn(C)c2C)cc1 | 1.3 µM [rising, partial curve] | -51.9% | 29.1 µM [falling, single point]
55 | COC(=O)c1cccc(NC(=O)c2cccs2)c1C | 0.731 µM [rising, single point] |  | 1.16 µM [rising, full curve]
56 | CCOc1ccc(-n2c(SCC(=O)Nc3cc(C(=O)O)ccc3Cl)nc3ccccc3c2=O)cc1 |  | 24.4% | 1.03 µM [rising, full curve, poor fit]
